Library screening results

Measurements from “University of Dundee, Small-Polar-MMV Screening Library” (2021), ChEMBL document CHEMBL3988442.

Mtb growth Cornell: 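Whole-cell assay for inhibitors of Mycobacterium tuberculosis growth, labelled Cornell in the record; the read-out is not stated. The concentration is filed as 10 mM, unlikely as a test dose, so the dose is not known. The record gives no direction; compounds strong in two other growth screens of this library score well above the rest, so higher reads as stronger inhibition. Of about 53,000 compounds tested this way, about 900 (1.7%) reached 50% or more in at least one test.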
Mtb heat-shock: 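Assay on Mycobacterium tuberculosis, filed only as a heat shock assay from Cornell; the read-out is not stated. The concentration is filed as 10 mM, unlikely as a test dose, so the dose is not known. Direction is inferred from retests: higher values go with stronger inhibition. Size under these conditions: about 69,000 compounds, about 930 of them at 50% or above in at least one test.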

The filed quantity is “Percent Effect” (%).
The record does not define 0% and 100%; most values in the screen are far below 50% and negative numbers occur (in some assays of this library far below -100).
This is an unselected part of the compounds tested.

- CN1CCCN(c2nc(C3CCCC3)nc3c2cnn3C)CC1 : Mtb growth Cornell: 65.73%; Mtb heat-shock: -0.09117%
- Cn1c(N2CCOCC2)nc2cc(C(=O)N3CC(O)CO3)ccc21 (stereo unspecified) : Mtb growth Cornell: -20.32%; Mtb heat-shock: -20.92%
- Cc1csc(C2CCCCN2C(=O)c2cc(C)n(C)n2)n1 (stereo unspecified) : Mtb heat-shock: -13.12%
- CC(C)c1nnc2n1CC(CNCc1nnc(C(C)(C)C)o1)CC2 (stereo unspecified) : Mtb heat-shock: -8.505%
- O=C(O)C(F)(F)F.[H][C@@]12C[C@H](C(=O)N3CCCCO3)CN(CC3CC3)[C@]1([H])CCO2 : Mtb growth Cornell: -19.6%; Mtb heat-shock: -0.7224%
- Cc1cnn(CC2CCCN2C(=O)c2ccc3c(c2)nnn3C)c1 (stereo unspecified) : Mtb growth Cornell: -16.68%; Mtb heat-shock: -14.97%
- Cl.Cl.c1cnc(NCc2cncc3c2CCN(Cc2ccsc2)C3)nc1 : Mtb growth Cornell: -2.234%; Mtb heat-shock: -15.25%
- O=C(O)C(F)(F)F.[H][C@@]12CCN(c3ccc(C)nn3)C[C@]1([H])O[C@@H](C(=O)NCc1ccco1)C2 : Mtb growth Cornell: 30.15%; Mtb heat-shock: -28.95%
- COc1cc(CO)ccc1OCc1nc(C(C)C)no1 : Mtb growth Cornell: -36.3%; Mtb heat-shock: 2.04%
- CC1CCN(CC(O)CN2CCn3c(nnc3C3CC3)C2)CC1 (stereo unspecified) : Mtb growth Cornell: -36.53%; Mtb heat-shock: 1.111%
- CN(Cc1cnc(C(C)(C)C)nc1)Cc1nc2ccc(F)cc2[nH]1 : Mtb growth Cornell: 21.91%; Mtb heat-shock: 6.352%
- O=C(O)c1cnc2c(cnn2C2CCCC2)c1 : Mtb growth Cornell: -23.45%; Mtb heat-shock: 20.14%
- O=C(O)C(F)(F)F.[H][C@@]12CCN(CC3CCOCC3)C[C@@]1([H])O[C@@H](c1nc(C)no1)C2 : Mtb growth Cornell: -1.499%; Mtb heat-shock: 8.897%
- Cc1noc(CS(=O)(=O)CC(=O)NC(C)c2ccccc2)n1 (stereo unspecified) : Mtb growth Cornell: 17.91%; Mtb heat-shock: 70.08%
- CC(C)Cn1[nH]cc/c1=N\C(=O)CN1CCOC(Cn2cccn2)C1 (stereo unspecified) : Mtb growth Cornell: -40%; Mtb heat-shock: 9.169%
- CCN1CCC2(CCN(c3ncccn3)CC2)C1=O.O=C(O)C(F)(F)F : Mtb growth Cornell: 18.92%; Mtb heat-shock: -1.865%
- CC(C)NC(=O)CC1CC2(CCN(S(C)(=O)=O)CC2)c2ccccc21 (stereo unspecified) : Mtb heat-shock: -21.61%
- Cc1cc(CNCc2c(C)nn(C)c2N2CCOCC2)no1 : Mtb heat-shock: 7.25%
- CCc1nc(C)sc1CN1CC[C@](C)(O)[C@H](C)C1 : Mtb growth Cornell: -64.12%; Mtb heat-shock: 19.62%
- O=C1CC(NS(=O)(=O)N2CCOCC2)CN1CCc1ccccc1 (stereo unspecified) : Mtb growth Cornell: 1.332%; Mtb heat-shock: 10.03%
- O=C(O)C(F)(F)F.O=C1COC2(COCCN(Cc3ccsc3)C2)CN1c1ccc(F)cc1 (stereo unspecified) : Mtb growth Cornell: 6.169%; Mtb heat-shock: 6.252%
- CCN(CCn1cccn1)Cc1nc(-c2ccc(F)cc2)oc1C : Mtb growth Cornell: 12.19%; Mtb heat-shock: -7.266%
- NC(=O)C1CCCN(C(=O)c2ccc(-n3ccnc3)cc2)C1 (stereo unspecified) : Mtb growth Cornell: -20.21%; Mtb heat-shock: -17.25%
- Cc1nnc(NC(=O)NC(C)Cn2cccn2)s1 (stereo unspecified) : Mtb heat-shock: -4.476%
- CSc1ccc(OC(C)C(=O)Nc2cc(C)n[nH]2)cc1 (stereo unspecified) : Mtb heat-shock: 4.866%
- CSCc1noc(CNC(=O)[C@H]2CNC[C@@H](C(=O)N3CCCC3)C2)n1 : Mtb heat-shock: -17.74%
- COCC1CN(CCc2ccc(OC)c(OC)c2)Cc2c1cnn2C (stereo unspecified) : Mtb growth Cornell: 0.3612%; Mtb heat-shock: 4.734%
- O=C(O)C(F)(F)F.O=C(O)C(F)(F)F.[H][C@@]12CN(Cc3csc(C)n3)C[C@H](C(=O)NCCOC)[C@]1([H])CCO2 : Mtb growth Cornell: -14.2%; Mtb heat-shock: -20.53%
- CCS(=O)(=O)Nc1ccc2oc(C)c(C(C)=O)c2c1 : Mtb growth Cornell: 9.487%; Mtb heat-shock: -10.24%
- CCS(=O)(=O)CCNc1nc(C2CCCC2)nc2c1cnn2C : Mtb growth Cornell: -9.599%; Mtb heat-shock: -23.34%
- O=C(CCc1nnc(-c2ccsc2)o1)NCC1CCN(C2CC2)C1 (stereo unspecified) : Mtb growth Cornell: -9.076%; Mtb heat-shock: -23.13%
- COc1ccc(CN2CC[C@@]3(C2)[C@H](O)CN(C)S3(=O)=O)cc1F : Mtb growth Cornell: -2.571%; Mtb heat-shock: 2.145%
- Cc1cnn(CC2CCCCN2C(=O)Cc2c(C)nn(C)c2C)c1 (stereo unspecified) : Mtb growth Cornell: 3.023%; Mtb heat-shock: 4.077%
- CCCN1CCCC2(CCN(S(=O)(=O)c3cccnc3)C2)C1=O (stereo unspecified) : Mtb growth Cornell: -44.37%; Mtb heat-shock: -12.96%
- CCc1cc(N2CCC(N[C@@H]3CS(=O)(=O)C[C@H]3O)CC2)nc(N(C)C)n1 : Mtb growth Cornell: 22.64%; Mtb heat-shock: -34.63%
- CC(C)n1cc2cc(NC(=O)Cn3cnnn3)ccc2n1 : Mtb growth Cornell: 14.89%; Mtb heat-shock: -5.119%
- CCOc1ccc(NC(=O)N2CCOC(C(N)=O)C2)cc1C (stereo unspecified) : Mtb growth Cornell: -10.8%; Mtb heat-shock: -12.31%
- O=C(O)C(F)(F)F.O=C(c1ccoc1)N1CCO[C@]2(CCC[C@@H]2COCc2cccnc2)C1 : Mtb growth Cornell: 13.16%; Mtb heat-shock: -12.3%
- CCN(CC1CCCO1)S(=O)(=O)c1cc(NC(C)=O)ccc1C (stereo unspecified) : Mtb growth Cornell: 8.616%; Mtb heat-shock: 7.487%
- COc1ccccc1CC1CCCN(C(=O)c2cn[nH]c2C)C1 (stereo unspecified) : Mtb heat-shock: 6.679%
- Cc1c(CN2CCCC(O)C2)[nH]c2ccc(F)cc12 (stereo unspecified) : Mtb growth Cornell: 5.456%; Mtb heat-shock: 5.694%
- COc1cc(CNC(C)Cn2cccn2)cc(Cl)c1OC.Cl (stereo unspecified) : Mtb growth Cornell: -9.078%; Mtb heat-shock: -19.61%
- CC(=O)N1CCN(Cc2nnc(C(C)(C)C)o2)CC1 : Mtb heat-shock: -15.68%
- COC(C)(C)CNC(=O)N1CCCC1c1c(C)n[nH]c1C (stereo unspecified) : Mtb growth Cornell: 2.225%; Mtb heat-shock: 7.186%

Once more, the final 3:

{"structure": "COc1cc(CNC(C)Cn2cccn2)cc(Cl)c1OC.Cl", "stereo": "stereo unspecified", "Mtb growth Cornell": -9.078, "Mtb heat-shock": -19.61}
{"structure": "CC(=O)N1CCN(Cc2nnc(C(C)(C)C)o2)CC1", "Mtb heat-shock": -15.68}
{"structure": "COC(C)(C)CNC(=O)N1CCCC1c1c(C)n[nH]c1C", "stereo": "stereo unspecified", "Mtb growth Cornell": 2.225, "Mtb heat-shock": 7.186}